# Experimental data from the supplement of paper PMC8426693.
# Some of the results follow.
# What was measured:
# Assay in all cases: NMR binding call after quantification (hit when 2 of 3 NMR criteria are met) (binary (1 = binding, 0 = not binding)); higher = binding
# Details in all cases: RNA concentration 10 µM; fragment concentration 200 µM; 293 K
# [1] = system: SARS-CoV-2 3'-UTR RNA
# [2] = system: SARS-CoV-2 3_SL1 RNA
# [3] = system: SARS-CoV-2 3_SL1+2 RNA
# [4] = system: SARS-CoV-2 3_SL2 RNA
# [5] = system: SARS-CoV-2 3_SL3base RNA
# [6] = system: SARS-CoV-2 3_s2m RNA
# [7] = system: SARS-CoV-2 5'-UTR RNA
# [8] = system: SARS-CoV-2 5_SL1 RNA
# [9] = system: SARS-CoV-2 5_SL1234 RNA
# [10] = system: SARS-CoV-2 5_SL2+3 RNA
# [11] = system: SARS-CoV-2 5_SL4 RNA
# [12] = system: SARS-CoV-2 5_SL5 RNA
# [13] = system: SARS-CoV-2 5_SL5a RNA
# [14] = system: SARS-CoV-2 5_SL5b+c RNA
# [15] = system: SARS-CoV-2 5_SL5stem RNA
# [16] = system: SARS-CoV-2 5_SL6 RNA
SMILES,NMR binding call [1],NMR binding call [2],NMR binding call [3],NMR binding call [4],NMR binding call [5],NMR binding call [6],NMR binding call [7],NMR binding call [8],NMR binding call [9],NMR binding call [10],NMR binding call [11],NMR binding call [12],NMR binding call [13],NMR binding call [14],NMR binding call [15],NMR binding call [16]
CCc1ccc(C(=O)NCc2cnn(C)c2)s1,0,0,0,0,0,0,0,0,0,0,0,0,0,0,0,0
Cc1nn(C)c(C)c1CN1CCNCC1,0,0,0,0,0,0,0,0,0,0,0,0,0,0,0,0
O=C(O)c1ccccc1OC(F)(F)F,0,0,0,0,0,0,0,0,0,0,0,0,0,0,0,0
O=C(c1c(F)cccc1F)N1CCCC1,0,0,0,0,0,0,0,0,0,0,0,0,0,0,0,0
NC(=O)c1cnn(CCO)c1,0,0,0,0,0,0,0,0,0,0,0,0,0,0,0,0
Cn1cc(Cl)c(C(=O)NC2CCCC2)n1,0,0,0,0,0,0,0,0,0,0,0,0,0,0,0,0
Oc1ccccc1-c1nc(-c2ccccc2)no1,0,0,0,0,0,0,0,0,0,0,0,0,0,0,0,0
CC(=O)c1ccc(N2CCC(C(N)=O)CC2)cc1,0,0,0,0,0,0,0,0,0,0,0,0,0,0,0,0
O=C(O)COCc1ccccc1,0,0,0,0,0,0,0,0,0,0,0,0,0,0,0,0
CNCC1COc2ccccc2O1 (stereo not drawn),0,0,0,0,0,0,0,0,0,0,0,0,0,0,0,0
CC(=O)Nc1cc2c(cc1C)OCO2,0,0,0,0,0,0,0,0,0,0,0,0,0,0,0,0
CCOC(=O)Nc1cccc(Cl)c1,0,0,0,0,0,0,0,0,0,0,0,0,0,0,0,0
CC(C)c1ccc(C(=O)Nc2nncs2)cc1,1,0,0,0,0,0,0,0,0,0,0,1,0,0,0,0
CCCC(=O)NCc1nc2ccccc2[nH]1,0,0,0,0,0,0,0,0,0,0,0,0,0,0,0,0
CC(=O)N1Cc2ccc(N)cc2C1,0,0,0,0,0,0,0,0,0,0,0,0,0,0,0,0
O=C(Nc1nnc(-c2ccco2)s1)C1CC1,0,0,0,0,0,0,0,0,0,0,0,0,0,0,0,0
Cn1c(CNC2CCCCC2)nc2ccccc21,0,0,0,0,0,0,0,0,0,0,0,0,0,0,0,0

SMILES,NMR binding call [1],NMR binding call [2],NMR binding call [3],NMR binding call [4],NMR binding call [5],NMR binding call [6],NMR binding call [7],NMR binding call [8],NMR binding call [9],NMR binding call [10],NMR binding call [11],NMR binding call [12],NMR binding call [13],NMR binding call [14],NMR binding call [15],NMR binding call [16]
NC(=O)N1CCN(c2ccc(F)cc2)CC1,0,0,0,0,0,0,0,0,0,0,0,0,0,0,0,0
CC(C)Oc1ccc(-c2csc(N)n2)cc1,0,0,0,0,0,0,0,0,0,0,0,0,0,0,0,0
O=C(Nc1ccc(O)cc1)N1CCOCC1,0,0,0,0,0,0,0,0,0,0,0,0,0,0,0,0
Nc1cccc(OCc2ccccc2)c1,0,0,0,0,0,0,0,0,0,0,0,0,0,0,0,0
COc1cccc(C(=O)Nc2ccccc2F)c1,0,0,0,0,0,0,0,0,0,0,0,0,0,0,0,0
Clc1snnc1CN1CCOCC1,0,0,0,0,0,0,0,0,0,0,0,0,0,0,0,0
C1CC(c2nc(C3CC3)no2)CN1 (stereo not drawn),0,0,0,0,0,0,0,0,0,0,0,0,0,0,0,0
CCOc1ccc(C(N)=O)cn1,0,0,0,0,0,0,0,0,0,0,0,0,0,0,0,0
Cc1nn(C)c(C)c1NC(=O)CC#N,0,0,0,0,0,0,0,0,0,0,0,0,0,0,0,0
CCC(=O)Nc1nnc(C2CCCCC2)s1,0,0,0,0,0,0,0,0,0,0,0,0,0,0,0,0
CC(=O)Nc1ccccc1CC(=O)O,0,0,0,0,0,0,0,0,0,0,0,0,0,0,0,0
OC1CN(C(c2ccccc2)c2ccccc2)C1,0,0,0,0,0,0,0,0,0,0,0,0,0,0,0,0
NC(=O)c1ccc(NC(=O)C2CCCC2)cc1,0,0,0,0,0,0,0,0,0,0,0,0,0,0,0,0
CN(CCc1ccccn1)C(=O)c1ccccc1,0,0,0,0,0,0,0,0,0,0,0,0,0,0,0,0
CCOC(=O)c1ccoc1,0,0,0,0,0,0,0,0,0,0,0,0,0,0,0,0
Cc1nn(C)c(C)c1CC(N)=O,0,0,0,0,0,0,0,0,0,0,0,0,0,0,0,0

# Reprinted at random: 3 entries already listed, in no set order.
SMILES,NMR binding call [1],NMR binding call [2],NMR binding call [3],NMR binding call [4],NMR binding call [5],NMR binding call [6],NMR binding call [7],NMR binding call [8],NMR binding call [9],NMR binding call [10],NMR binding call [11],NMR binding call [12],NMR binding call [13],NMR binding call [14],NMR binding call [15],NMR binding call [16]
CCOc1ccc(C(N)=O)cn1,0,0,0,0,0,0,0,0,0,0,0,0,0,0,0,0
CN(CCc1ccccn1)C(=O)c1ccccc1,0,0,0,0,0,0,0,0,0,0,0,0,0,0,0,0
Cc1nn(C)c(C)c1CC(N)=O,0,0,0,0,0,0,0,0,0,0,0,0,0,0,0,0
